These are yes or no findings as the source states them, for the method shown. Binding seen in cells or lysates may run through a third protein. Some entries that bind do so weakly or less than the wild type.
Target: G subunit of the eIF3 complex (eIF3G) (human (endogenous in HEK293T)), O75821
Test: cross-linking
Conditions: remark: other sources report otherwise

binding: binds
B1: eIF4A2 (subunit of the eIF4F complex), Q14240 1-407 (protein)
chain: MSGGSADYNREHGGPEGMDPDGVIESNWNEIVDNFDDMNLKESLLRGIYAYGFEKPSAIQQRAIIPCIKGYDVIAQAQSGTGKTATFAISILQQLEIEFKETQALVLAPTRELAQQIQKVILALGDYMGATCHACIGGTNVRNEMQKLQAEAPHIVVGTPGRVFDMLNRRYLSPKWIKMFVLDEADEMLSRGFKDQIYEIFQKLNTSIQVVLLSATMPTDVLEVTKKFMRDPIRILVKKEELTLEGIKQFYINVEREEWKLDTLCDLYETLTITQAVIFLNTRRKVDWLTEKMHARDFTVSALHGDMDQKERDVIMREFRSGSSRVLITTDLLARGIDVQQVSLVINYDLPTNRENYIHRIGRGGRFGRKGVAINFVTEEDKRILRDIETFYNTTVEEMPMNVADLI

Source: article doi:10.1101/2022.02.10.479924
